Reference: patent US11805798B2, “Process for increasing the stability of a composition comprising polyunsaturated omega-3 fatty acids” (Evonik Operations GmbH, priority 2014, dated 2023)
At least one structure is not confirmed: it was looked up by name or label, or the drawing left a doubt.

Columns and labels:
Assay type in all cases: physicochemical
[1] = Anisidine Value (AV), secondary oxidation products, Ph. Eur. 2.5.36; stability on storage
Method: An exemplary procedure for determining the Anisidine Value (AV) of a sample is performed as follows
The anisidine value is defined as 100 times the optical density measured in a 1 cm cell of a solution containing 1 g of the substance to be examined in 100 ml of a mixture of solvents and reagents according to the following method carry out the operations as rapidly as possible avoiding exposure to actinic light.
Test solution (a); Dissolve 0.500 g of the substance to be examined in trimethylpentane and dilute to 25.0 ml with the same solvent.
Test solution (b): To 5.0 ml of test solution (a) add 1.0 ml of a 2.5 g/t solution of p-anisidine in glacial acetic acid, shake and store protected from light.
Reference solution: To 5.0 ml of trimethylpentane add 1.0 ml of a 2.5 g/l solution of p-anisidine in glacial acetic acid, shake and store protected from light. Measure the absorbance of test solution (a) at the maximum at 350 nm using trimethylpentane as the compensation liquid. Measure the absorbance of test solution (b) at 350 nm exactly 10 min after its preparation, using the reference solution as the compensation liquid. Calculate the anisidine value (AV) from the expression. AV=(25*(1.2*A1−A2)/m • A1=absorbance of test solution (b) at 350 nm, • A2=absorbance of test solution (a) at 350 nm, • m=mass of the substance to be examined in test solution (a), in grams.
(§1) Primary oxidation products (hydroperoxides at double bonds) were quantified by determining the Peroxide Value (PV) according to Ph. Eur 2.5.5 (01/2008.20505). Secondary oxidation products (carbonyl compounds) were quantified by determining the Anisidine Value (AV) according to Ph, Eur. 2.5.36 (01/2008:20536).
(§2) About 50 g each of the liquid ethyl esters EPA-OEt and DHA-OEt used in experiments 1 and 2 as well as of the liquid fatty acids EPA and DHA obtained in experiments 1 and 2 were filled into 250 ml Schott Duran bottles with an inner diameter of about 60 mm (filling height about 20 mm). About 50 g each of the solid lysine-salts EPA-Lys and DHA-Lys obtained in experiments 3 and 4 were filled into 250 ml polyethylene wide-neck bottles (55 mm*55 mm*80 mm) (filling height about 60 mm-70 mm).
(§3) All of the bottles were placed together with opened lids in a drying oven with an opened ventilation valve at 50° C. and stored under these conditions for 26 days. Results of the analyses performed subsequently as well as the results obtained for the sodium-salts which were stored at room temperature (cf. experiments 5 and 6) are summarized in the following table (Table 1).

[2] = Oligomer content by gel-chromatography (GPC), RI-detector; stability on storage
Method: Oligomeric PUFA constituents as well as their derivatives (collectively referred to as oligomer content) were quantified by gel-chromatographic means (GPC, styroldivinylbenzene-phase with tetrahydrofuran containing trifluoroacetic acid used as eluent). A refractive index (RI) detector was used for detection. Due to the fact that specific response factors of the constituents of the samples wore unknown, proportions were calculated based upon fractional proportions of the total area of chromatograms.
as §2, §3

[3] = Peroxide Value (PV), primary oxidation products, Ph. Eur. 2.5.5; stability on storage
Method: An exemplary procedure for determining the Peroxide Value (PV) of a sample is performed as follows:
Reagents and solution: • 1. Acetic Acid—chloroform solution (7.2 ml Acetic Acid and 4.8 ml Chloroform). • 2. Saturated Potassium Iodide solution. Store in the dark. • 3. Sodium thiosulfate solution, 0.1N. Commercially available • 4. 1% Starch solution. Commercially available. • 5. Distilled or deionized water.
Conduct a blank determination of the reagents • 1. Weigh 2.00 (±0.02) g of sample into a 100 ml glass stoppered Erlenmeyer flask. Record weight to the nearest 0.01 g. • 2. By graduated cylinder, odd 12 ml of the acetic acid chloroform solution. • 3. Swirl the flask until the sample is completely dissolved (careful warming on a hot plate may be necessary). • 4. Using 1 ml Mohr pipette, add 0.2 ml of saturated potassium iodide solution • 5. Stopper the flask and swirl the contents of the flask for exactly one minute. • 6. Immediately add by graduated cylinder, 12 ml of either distilled or deionized water, stopper and stake vigorously to liberate the iodine from the chloroform layer. • 7. Fill the burette with 0.1 N sodium thiosulfate. • 8. If the starting color of the solution is deep red orange, titrate slowly with mixing until the color lightens. If the solution is initially a light amber color, go to step 9. • 9. Using a dispensing device: add 1 ml of starch solution as indicator. • 10. Titrate until the blue gray color disappears in the aqueous (upper layer). • 11. Accurately record the mis of titrant used to two decimal places.
Calculation: • S=titration of sample • B=titration of blank • Peroxide value=(S−B)*N thiosulfate*1000/weight of sample
as §1, §2
All of the bottles were placed together with opened lids in a drying oven with an opened ventilation valve at 50° C. and stored under these conditions for 26 days. […]

[4] = t = 26 days, open bottles exposed to air, drying oven at 50° C.

| SMILES | Anisidine Value (AV) ([1]; t = 0, before storage) | Anisidine Value (AV) [1, 4] | Oligomer content [2, 4] | Peroxide Value (PV) ([3]; t = 0, before storage) | Peroxide Value (PV) [3, 4] | Oligomer content ([2]; t = 0, before storage) |
| --- | --- | --- | --- | --- | --- | --- |
| CC/C=C\C/C=C\C/C=C\C/C=C\C/C=C\C/C=C\CCC(=O)O [DHA-OH, docosahexaenoic acid] | 1.7 A/g | 894 A/g | 34.7 area-% | 7.9 mmol/kg | 20.6 mmol/kg |  |
| CC/C=C\C/C=C\C/C=C\C/C=C\C/C=C\CCCC(=O)OCC [EPA-OEt, Eicosapentaenoic Acid Ethyl Ester] | 5.0 A/g | 1843 A/g | 37.0 area-% | 6.5 mmol/kg | 267.7 mmol/kg | 0.2 area-% |
